Measured values published in article doi:10.1101/2025.11.10.687237.

T1: Slx5 (SUMO-targeted ubiquitin ligase) (budding yeast) (UniProt P32828)
T1 sequence: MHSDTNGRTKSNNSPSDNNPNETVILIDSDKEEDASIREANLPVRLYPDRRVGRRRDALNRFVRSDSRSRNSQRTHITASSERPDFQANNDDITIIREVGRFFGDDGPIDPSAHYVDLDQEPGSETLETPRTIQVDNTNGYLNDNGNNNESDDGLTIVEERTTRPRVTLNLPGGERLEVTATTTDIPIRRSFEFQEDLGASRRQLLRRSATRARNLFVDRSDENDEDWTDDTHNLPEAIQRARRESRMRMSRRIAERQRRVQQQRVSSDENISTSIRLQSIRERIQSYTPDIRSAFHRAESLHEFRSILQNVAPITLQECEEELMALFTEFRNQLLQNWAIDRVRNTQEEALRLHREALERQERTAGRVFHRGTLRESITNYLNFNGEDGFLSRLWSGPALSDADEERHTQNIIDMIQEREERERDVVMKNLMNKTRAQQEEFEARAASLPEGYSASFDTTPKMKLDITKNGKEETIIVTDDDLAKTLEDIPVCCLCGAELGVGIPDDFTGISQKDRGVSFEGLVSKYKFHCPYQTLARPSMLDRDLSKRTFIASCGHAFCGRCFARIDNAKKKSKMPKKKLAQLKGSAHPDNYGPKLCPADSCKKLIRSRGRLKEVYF


What was measured:
[1] = target: T1, Slx5 (SUMO-targeted ubiquitin ligase) (budding yeast); assay: two-hybrid
[2] = target: Slx5^ΔSIM (budding yeast) (UniProt P32828); assay: two-hybrid

| binding [1] | binding [2] | Molecule |
| --- | --- | --- |
| binds |  | Cin8-5R (budding yeast) |
|  | no binding | Cin8 (yeast kinesin-5) (protein, UniProt P27895 1-1000) MPAENQNTGQDRSSNSISKNGNSQVGCHTVPNEELNITVAVRCRGRNEREISMKSSVVVNVPDITGSKEISINTTGDTGITAQMNAKRYTVDKVFGPGASQDLIFDEVAGPLFQDFIKGYNCTVLVYGMTSTGKTYTMTGDEKLYNGELSDAAGIIPRVLLKLFDTLELQQNDYVVKCSFIELYNEELKDLLDSNSNGSSNTGFDGQFMKKLRIFDSSTANNTTSNSASSSRSNSRNSSPRSLNDLTPKAALLRKRLRTKSLPNTIKQQYQQQQAVNSRNNSSSNSGSTTNNASSNTNTNNGQRSSMAPNDQTNGIYIQNLQEFHITNAMEGLNLLQKGLKHRQVASTKMNDFSSRSHTIFTITLYKKHQDELFRISKMNLVDLAGSENINRSGALNQRAKEAGSINQSLLTLGRVINALVDKSGHIPFRESKLTRLLQDSLGGNTKTALIATISPAKVTSEETCSTLEYASKAKNIKNKPQLGSFIMKDILVKNITMELAKIKSDLLSTKSKEGIYMSQDHYKNLNSDLESYKNEVQECKREIESLTSKNALLVKDKLKSKETIQSQNCQIESLKTTIDHLRAQLDKQHKTEIEISDFNNKLQKLTEVMQMALHDYKKRELDLNQKFEMHITKEIKKLKSTLFLQLNTMQQESILQETNIQPNLDMIKNEVLTLMRTMQEKAELMYKDCVKKILNESPKFFNVVIEKIDIIRVDFQKFYKNIAENLSDISEENNNMKQYLKNHFFKNNHQELLNRHVDSTYENIEKRTNEFVENFKKVLNDHLDENKKLIMQNLTTATSAVIDQEMDLFEPKRVKWENSFDLINDCDSMNNEFYNSMAATLSQIKSTVDTSSNSMNESISVMKGQVEESENAISLLKNNTKFNDQFEQLINKHNMLKDNIKNSITSTHSHITNVDDIYNTIENIMKNYGNKENATKDEMIENILKEIPNLSKKMPLRLSNINSNSVQSVISPKKHAIEDENKSSENVDNEGSRKMLKIE |

No constants are given. Whether binding was seen depends on the method and setting. For some assays here: Binding calls can cover weak binding; strength is not graded here.
